This data set has as its system proteins described in Table 50. In words: DLS diffusion interaction parameter kD (Example 49). Type of data set: physicochemical. The following applies: excipient stock concentration 200 mM, mixed 1:1 with protein solution, 20 mM His HCl pH 6, 25° C. The procedure:
The resulting solution was titrated to pH 6 by dropwise addition of 1 M hydrochloric acid. After pH adjustment, the buffer was diluted to a final volume of 1 L in a volumetric flask with Type 1 ultrapure water. All excipients used in this Example, listed in Table 50 below, were of the highest purity, and were obtained from Sigma Aldrich (St. Louis, MO) or Cayman Chemical (Ann Arbor, MI).
A series of six test protein solutions were prepared using the proteins described in Table 50, ranging in protein concentration from about 4 mg/mL to about 20 mg/mL, all in 20 mM His HCl buffer at pH 6. […] A second centrifuge step was completed to remove air bubbles. The diffusion interaction parameter (kD) of these protein-excipient formulations was measured by dynamic light scattering (DLS) in dilute solution as a way of probing the impact of excipients on protein-protein interactions (PPI). […] A more negative kD indicated a stronger net attractive PPI and a more positive kD indicated a stronger net repulsive PPI.

For the molecule `NCCC[C@H](N)C(=O)O` [L-ornithine], under “omalizumab”, the “Omalizumab kD” value was -16.5 mL/g. In addition, the “Ustekinumab kD” value (ustekinumab) is -4.3 mL/g.
